Measured values as given in PubChem BioAssay AID485318 (Broad Institute, 2010).
In all, about 1,400 compounds went through this assay and fewer than 10 were called active.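 How the source made its calls: active means fluorescence-lowering compounds whose fitted half-maximal concentration is at or below ten times the highest valid dose tested; inconclusive means flat curve at 30 to 70% inhibition, or poor fit; inactive means the rest.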 The list shows a part of the results.

Chains of the proteins cited; added tags and fusions are not shown. Lines headed by an entry give the natural chain unless they say otherwise; changes in a name come on top.
UniProt O15379: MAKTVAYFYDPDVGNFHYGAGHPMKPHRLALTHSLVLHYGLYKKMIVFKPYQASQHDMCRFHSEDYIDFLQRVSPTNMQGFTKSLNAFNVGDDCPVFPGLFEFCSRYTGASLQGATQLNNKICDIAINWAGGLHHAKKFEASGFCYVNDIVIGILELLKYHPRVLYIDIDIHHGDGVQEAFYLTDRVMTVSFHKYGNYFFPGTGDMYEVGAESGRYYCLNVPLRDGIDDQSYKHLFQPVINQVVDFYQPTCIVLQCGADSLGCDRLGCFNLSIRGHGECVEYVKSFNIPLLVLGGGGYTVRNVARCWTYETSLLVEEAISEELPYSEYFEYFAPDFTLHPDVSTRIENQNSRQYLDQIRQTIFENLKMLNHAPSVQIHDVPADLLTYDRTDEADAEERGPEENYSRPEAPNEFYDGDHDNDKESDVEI

The compounds below were run against Histone deacetylase 3 (Homo sapiens) (UniProt O15379) (assay: HDAC3 deacetylase inhibitors, dose response, counter-screen for JMJD2C/GASC1 demethylase inhibitor project, biochemical, fluorescence, cherry-picked samples (AID 485318;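 further: enzyme preincubated with compound before substrate and trypsin were added; 0% = neutral control wells and -100% = SAHA positive control wells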)). Conditions: recombinant HDAC3, fluorogenic peptide/trypsin coupled; at 12 µM (top of the series).
For `Cc1ccc(OCCSc2nnc(-c3cccs3)n2C)cc1`, the activity change, negative = inhibition was inactive: -0.407%.
`Oc1ccc(Br)cc1/C=N/Nc1nc(N2CCCCC2)nc(N2CCOCC2)n1` was tested, and the activity change, negative = inhibition was inactive: 0.26%.
For `Cc1ccc(S(=O)(=O)NCCC(=O)Oc2ccc3ccc(=O)oc3c2)cc1`, the activity change, negative = inhibition was inactive: -0.119%.
For `C=CCn1c(O)c(N=Nc2ccccc2C)c2ccccc21`, the activity change, negative = inhibition was inactive: -0.553%.
In the case of `CC(C)(C)n1ncc2c(=O)n(Cc3ccccc3Br)cnc21`, the activity change, negative = inhibition is reported as inactive: -0.00762%.
For `CCOC(=O)N1CCN(C(=S)NC(=O)c2ccc(F)cc2)CC1`, the activity change, negative = inhibition was inactive: 0.544%.
In the case of `COc1ccc(/C=C2/CC/C(=C\c3ccc(OC)c(OC)c3OC)C2=O)c(OC)c1OC`, the activity change, negative = inhibition is reported as inactive: 0.948%.
`COc1ccc(/C=N/N=C2\CC3CCC2(C)C3(C)C)cc1O` (centres undefined) was tested, and the activity change, negative = inhibition was inactive: 0.124%.
For `Cc1ccc(C)c(N2CCN(C(=O)Cn3ncc4c([nH]c5ccc(C)cc54)c3=O)CC2)c1`, the activity change, negative = inhibition was inactive: -0.141%.
`COc1cc(OC)cc(C(=O)Nc2ccc(-n3cnnn3)c(C)c2)c1` was tested, and the activity change, negative = inhibition was inactive: -0.279%.
For `O=c1oc2ccccc2cc1-c1nc(-c2cccs2)cs1`, the activity change, negative = inhibition was inactive: 0.294%.
`Cc1c(Cl)c(-c2n[nH]c(=S)n2-c2ccc(F)cc2)nn1C` was tested, and the activity change, negative = inhibition was inactive: -0.658%.
For `CC(C)Cn1c(N)c(C(=O)COC(=O)c2c(O)c(Cl)cc(Cl)c2Cl)c(=O)n(C)c1=O`, the activity change, negative = inhibition was inactive: 0.179%.
`OCc1csc(=Nc2ccccc2)n1-c1ccccc1` was tested, and the activity change, negative = inhibition was inactive: -0.375%.
In the case of `CS(=O)(=O)N(CC(=O)Nc1ccccc1C(=O)NCCc1ccccc1)c1ccc2c(c1)OCCO2`, the activity change, negative = inhibition is reported as inactive: 0.133%.
`Clc1ccc(N=c2ssnc2Cl)nc1` was tested, and the activity change, negative = inhibition was inactive: 0.426%.
In the case of `CCC(C)(C)NC(=O)C(c1ccc(C)o1)N(Cc1cccs1)C(=O)Cn1nnc2ccccc21` (centres undefined), the activity change, negative = inhibition is reported as inactive: -0.314%.
With `Cc1nnc(SCC(=O)Nc2sccc2C(N)=O)n1Cc1ccccc1` the activity change, negative = inhibition was inactive: 0.0899%.
With `COC(=O)[C@]1(Cc2ccccc2)N[C@H](CN(C)S(=O)(=O)c2ccc(-c3ccccc3)cc2)[C@@H]2C(=O)N(C)C(=O)[C@@H]21` the activity change, negative = inhibition was inactive: 0.468%.
`CCCCCCC(=O)N1CCN(c2cc3c(cc2F)c(=O)c(C(=O)O)cn3CC)CC1` was tested, and the activity change, negative = inhibition was inactive: 0.517%.
For `CC(CC(=O)Nc1cc([N+](=O)[O-])ccc1Cl)c1ccccc1` (centres undefined), the activity change, negative = inhibition was inactive: 0.176%.
In the case of `CCOC(=O)c1c(S(=O)(=O)NCC(=O)Nc2cccc(C)c2C)c(C)n(C)c1C`, the activity change, negative = inhibition is reported as inactive: 1.31%.
For `CCN(c1ccc(NC(=O)CCNC(=O)c2ccco2)cc1)C(C)C`, the activity change, negative = inhibition was inactive: 0.0545%.
With `O=C(Nc1nnc(-c2ccco2)o1)c1ccc(N2C(=O)CCC2=O)cc1` the activity change, negative = inhibition was inactive: -0.548%.
